From PubChem BioAssay AID1347076 (National Center for Advancing Translational Sciences (NCATS), 2019)
Among all 400,000 compounds or so, about 13,000 (3.2%) were called active. The shares of active, inactive and inconclusive entries below differ from those in the screen. Calls follow the shape of the dose curve; as a rule, active = well fitted cell-killing curve with a large enough effect; inconclusive = small, poorly fitted or top-dose-only effect, or effect the other way; inactive = flat fitted curve, though single readings scatter. Potencies beside an inconclusive call are fits to weak or partial responses and may not hold up.

assay: qHTS assay for MDR1-selective chemotherapeutics: Primary screen using the drug-selected MDR subline cells KB-V1; settings: KB-V1 MDR cells viability, CellTiter-Glo, 72 h; activity change, negative = cytotoxicity: at 46.1 µM (top of the series); also: nearly all actives have a fitted effect of over 60% in size
Summary of the method: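 Luminescent ATP read-out (CellTiter-Glo, 10 min) measures survival of drug-selected KB-V1 MDR cells after 72 h, 37 degrees C compound exposure. Medium: phenol-red-free DMEM, 10% FBS. Values from fitted concentration-response curves.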
% is scaled to controls: 0 for no effect and ±100 for the full control effect; potency is read from the fitted curve at half-maximal effect.

| SMILES | Potency | activity change, negative = cytotoxicity |
| --- | --- | --- |
| Cc1nc(-c2coc3cc(C)c(N=O)c(O)c3/c2=N\N)cs1 | inconclusive: 20.6 µM [cytotoxic, partial curve, poor fit] | – |
| CC(C)N=C(Nc1cccnc1)c1ccccc1 | – | inactive: 0.159% |
| O=C1c2ccccc2C(=O)N1c1cccc2cccnc12 | – | inactive: 13% |
| COc1cccc(NC(=O)c2sc3ncn(CC(=O)N4CCN(c5ccccn5)CC4)c(=O)c3c2C)c1 | inconclusive: 13 µM [rising, single point] | – |
| Cc1oc(-c2ccc(C(=O)NCc3ccccc3F)cc2)nc1COc1ccccc1 | inconclusive: 16.4 µM [cytotoxic, single point] | – |
| O=C(C[n+]1cccc(Cl)c1)c1ccc(F)cc1 | – | inactive: -9.6% |
| Cc1cc(C)nc(SCc2ccc(C(=O)N/N=C/c3ccccn3)cc2)n1 | inconclusive: 25.9 µM [cytotoxic, single point] | – |
| COC(=O)c1ccc(C(=S)NCC2(N(C)C)CCCCC2)cc1 | inconclusive: 32.6 µM [cytotoxic, partial curve, poor fit] | – |
| COc1ccccc1CNc1nc(NC(C)C)nc2cc(-c3ccccc3)sc12 | inconclusive: 2.91 µM [cytotoxic, full curve, poor fit] | – |
| Cc1cccc(C)c1NS(=O)(=O)c1ccc(-c2ccc(=O)[nH]n2)o1 | inconclusive: 0.517 µM [rising, single point] | – |
| Cc1noc(C)c1CSc1ccc2ccccc2n1 | active: 20.6 µM | – |
| COc1cccc(CNC(=O)c2cccc(S(=O)(=O)N3CCN(Cc4ccccc4)CC3)c2)c1 | active: 14.6 µM | – |
| COc1ccc(OC)c(NC(=O)CN(c2ccc(OC)c(Cl)c2)S(C)(=O)=O)c1 | inconclusive: 13 µM [cytotoxic, partial curve] | – |
| CC1CCCCN1Cc1nc2c(c(=O)n(C)c(=O)n2C)n1CCCc1ccccc1 (stereo unspecified) | inconclusive: 2.31 µM [cytotoxic, partial curve] | – |
| CCCCn1c(N)c(N(CC)C(=O)c2cccc(OC)c2)c(=O)[nH]c1=O | – | inactive: -8.18% |
| CC(C)Nc1nc2nonc2nc1Nc1ccccc1 | inconclusive: 25.9 µM [cytotoxic, single point] | – |
| Cc1cc(C)n(-c2nc3ccccc3c(=O)n2OCC(=O)N(C)C)n1 | – | inactive: -3.77% |
| Cc1ccccc1Cn1ccc(NC(=O)c2cnn3c(C(F)(F)F)cc(-c4ccco4)nc23)n1 | – | inactive: -22.8% |
| CCc1nn2c(N)c(/C=C3\C=Nc4ccccc43)c(=O)nc2s1 | inactive | – |
| CCOC(=O)C1=NOC2(C1)C(=O)Nc1ccc(OC)cc12 (stereo unspecified) | inconclusive: 25.9 µM [rising, single point] | – |
| COc1ccccc1CNC(=O)C1CCN(S(=O)(=O)c2ccc3[nH]c(=O)ccc3c2)CC1 | – | inactive: 0% |
| Cc1cc(C(=O)C(=O)N(C)C)c(C)n1-c1ccc(Cl)c(Cl)c1 | inconclusive: 29.1 µM [cytotoxic, single point] | – |
| Cc1ccc(NC(=O)CCn2c(=O)[nH]c3ccsc3c2=O)cc1 | inconclusive: 1.84 µM [rising, full curve] | – |

| SMILES | Potency | activity change, negative = cytotoxicity |
| --- | --- | --- |
| COc1ccc(NC(=S)NN2CCN(C)CC2)cc1 | inconclusive: 13 µM [rising, partial curve, poor fit] | – |
| CCOc1ccc(NC(=O)Cn2c(=O)n(Cc3ccco3)c(=O)c3ccc(C(=O)NC4CCCC4)cc32)cc1 | inconclusive: 29.1 µM [rising, single point] | – |
| Cc1cc(C(=O)COC(=O)Cc2n[nH]c(=O)c3ccccc23)c(C)n1-c1ccc2c(c1)OCCO2 | inconclusive: 32.6 µM [cytotoxic, single point] | – |
| CC1(C)CC(=O)C2=C(C1)Nc1ccccc1S2 | – | inactive: -3.62% |
| COc1ccc(Cl)cc1NC(=O)CCN1C(=O)C2CC=CCC2C1=O (stereo unspecified) | inconclusive: 9.2 µM [cytotoxic, partial curve, poor fit] | – |
| Cn1c(CSCc2ccc(F)cc2)nnc1SCC(=O)Nc1nccs1 | active: 23.1 µM | – |
| CCCN(CC(=O)Nc1ccc(Cl)cc1Cl)C(=O)/C=C/c1ccco1 | inconclusive: 8.2 µM [cytotoxic, partial curve] | – |
| CC(C)CC(=O)c1c[nH]c(C(=O)NCCCN2CCOCC2)c1 | – | inactive: -23.7% |
| Cc1ccc(S(=O)(=O)N2CCN(CC(O)c3ccccc3)CC2)cc1C (stereo unspecified) | inconclusive: 16.4 µM [cytotoxic, single point] | – |
| CCOc1ccc(NC(=O)Cn2nc(SC)c(S(=O)(=O)c3ccccc3)c2N)cc1 | – | inactive: 6.38% |
| Cc1cccc(OCc2nc(C)cc(=O)[nH]2)c1 | inconclusive: 14.6 µM [rising, partial curve, poor fit] | – |
| O=C(Nc1cc(=O)[nH]c(=O)[nH]1)c1cc(Cl)ccc1Cl | inconclusive: 32.6 µM [cytotoxic, single point] | – |
| Cc1ccccc1-c1nnc(SCC(=O)N(C)c2c(N)n(Cc3ccccc3)c(=O)[nH]c2=O)n1C | inconclusive: 20.6 µM [cytotoxic, single point] | – |
| CCOC(=O)c1ccc(N2CC(O)=C(c3nc4ccccc4c(=O)[nH]3)C2=N)cc1 | – | inactive: -4.76% |
| CCN(Cc1ccccc1)c1ccc(/C=C(\C#N)c2ccccn2)cc1 | inconclusive: 29.1 µM [cytotoxic, single point] | – |
| O=C(c1ccc(S(=O)(=O)N2CCOCC2)cc1)N1CCN(C2=NS(=O)(=O)c3ccccc32)CC1 | – | inactive: 3.75% |
| Cc1cccnc1NC(=S)Nc1ccc(Br)cc1Cl | – | inactive: -15.6% |
| CCOc1ccc(CCNC(=O)c2cc(C)nc3ccccc23)cc1OCC | – | inactive: -8.63% |
| O=C(C1CCCN(S(=O)(=O)c2ccc(Cl)cc2)C1)N(Cc1cccs1)C1CC1 (stereo unspecified) | inconclusive: 18.4 µM [cytotoxic, single point] | – |
| Fc1cccc(Cc2noc(CN3CCN(C4CCc5ccccc5C4)CC3)n2)c1 (stereo unspecified) | inconclusive: 7.31 µM [cytotoxic, partial curve, poor fit] | – |
| CCc1cc(-c2[nH]ncc2-c2ccc3c(c2)OCO3)c(O)cc1O | active: 9.2 µM | – |
| CC(=O)Nc1cc(-c2ccsc2)cn2c(-c3ccc(F)cc3)cnc12 | – | inactive: 0.0944% |
| Cc1ccc2[nH]c(C)c(CCNC(=O)c3c(N)no[n+]3[O-])c2c1 | inconclusive: 29.1 µM [cytotoxic, single point] | – |

Another view of 4 compounds above:
Cc1nc(-c2coc3cc(C)c(N=O)c(O)c3/c2=N\N)cs1
  Potency: inconclusive: 20.6 µM [cytotoxic, partial curve, poor fit]
CC(C)N=C(Nc1cccnc1)c1ccccc1
  activity change, negative = cytotoxicity: inactive: 0.159%
O=C1c2ccccc2C(=O)N1c1cccc2cccnc12
  activity change, negative = cytotoxicity: inactive: 13%
COc1cccc(NC(=O)c2sc3ncn(CC(=O)N4CCN(c5ccccn5)CC4)c(=O)c3c2C)c1
  Potency: inconclusive: 13 µM [rising, single point]
